Measurements: PMC11589570, “Critical assessment of LC3/GABARAP ligands used for degrader development and ligandability of LC3/GABARAP binding pockets” (Nature Communications, 2024)
Several values for one entry are separate records, joined by “and”; a condition that tells them apart may be missing. Equal entries are not always repeated. The source gives many values for each of these; only a part stands here.

Tested on: U2OS cells
Experiment: Cell growth assay (IncuCyte confluence over 72 h)
Type: cell-based
Parameters: key: % of well area covered by cells (confluence)
Conditions: listed as 8F20
Summary of the method: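 U2OS cells were grown in DMEM with 10% FBS for 24 h before treatment. Confluence was then tracked by IncuCyte phase imaging over 72 h and expressed as % of well area covered by cells. Each point is the average of three wells.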

Cc1ccc(C(=O)N(CCCN)[C@@H](c2nc3cc(Cl)ccc3c(=O)n2Cc2ccccc2)C(C)C)cc1 [compound 3, (R)-N-(3-aminopropyl)-N-(1-(3-benzyl-7-chloro-4-oxo-3,4-dihydroquinazolin-2-yl)−2-methylpropyl)−4-methylbenzamide]
U2OS cell growth (100 nM, time 0 h): 18.0255 and 19.691 and 18.4435 | U2OS cell growth (100 nM, time 2 h): 24.1043 and 26.9452 and 25.7455 | U2OS cell growth (100 nM, time 4 h): 21.4028 and 24.7641 and 21.3414 | U2OS cell growth (100 nM, time 6 h): 24.2787 and 24.4992 and 24.4953 | U2OS cell growth (100 nM, time 12 h): 22.7099 and 20.7666 and 25.7013 | U2OS cell growth (100 nM, time 14 h): 23.1025 and 20.7978 and 25.9462 | U2OS cell growth (100 nM, time 16 h): 21.7872 and 19.9875 and 26.7142 | U2OS cell growth (100 nM, time 18 h): 24.0118 and 18.9125 and 30.747 | U2OS cell growth (100 nM, time 20 h): 22.0141 and 18.4921 and 24.654 | U2OS cell growth (100 nM, time 22 h): 21.0436 and 16.4828 and 22.1426 | U2OS cell growth (100 nM, time 24 h): 19.22 and 18.0764 and 22.1209 | U2OS cell growth (100 nM, time 26 h): 21.5351 and 18.5507 and 21.8086 | U2OS cell growth (100 nM, time 28 h): 21.9225 and 20.0634 and 21.6973 | U2OS cell growth (100 nM, time 30 h): 21.0089 and 19.681 and 22.6641 | U2OS cell growth (100 nM, time 32 h): 22.9178 and 20.8483 and 25.4586 | U2OS cell growth (100 nM, time 48 h): 32.126 and 29.4283 and 35.5759 | U2OS cell growth (100 nM, time 50 h): 31.3724 and 30.2183 and 32.922 | U2OS cell growth (100 nM, time 52 h): 32.7838 and 31.9468 and 32.3438 | U2OS cell growth (100 nM, time 54 h): 30.2864 and 27.1369 and 34.8183 | U2OS cell growth (100 nM, time 56 h): 34.5771 and 31.591 and 35.5871 | U2OS cell growth (100 nM, time 58 h): 37.6939 and 37.2505 and 38.0323 | U2OS cell growth (100 nM, time 60 h): 47.6851 and 48.3681 and 56.4168 | U2OS cell growth (100 nM, time 62 h): 35.4962 and 41.6208 and 40.3505 | U2OS cell growth (100 nM, time 64 h): 37.9852 and 37.0606 and 36.9349 | U2OS cell growth (100 nM, time 66 h): 35.0116 and 35.9266 and 35.1875 | U2OS cell growth (100 nM, time 68 h): 38.4914 and 33.3062 and 36.9128 | U2OS cell growth (100 nM, time 70 h): 40.9151 and 36.2966 and 42.793 | U2OS cell growth (100 nM, time 72 h): 39.0452 and 35.0035 and 40.581 | U2OS cell growth (500 nM, time 0 h): 24.9027 and 30.3112 and 23.4178 | U2OS cell growth (500 nM, time 2 h): 27.1071 and 34.0249 and 28.9277 | U2OS cell growth (500 nM, time 4 h): 26.3563 and 31.6087 and 27.5504 | U2OS cell growth (500 nM, time 6 h): 25.1739 and 33.3568 and 29.1534 | U2OS cell growth (500 nM, time 8 h): 29.7636 and 27.4625 and 28.9461 | U2OS cell growth (500 nM, time 10 h): 32.8557 and 33.1701 and 34.3828 | U2OS cell growth (500 nM, time 12 h): 30.8833 and 31.8525 and 33.3299 | U2OS cell growth (500 nM, time 14 h): 28.9221 and 28.9166 and 31.9426 | U2OS cell growth (500 nM, time 16 h): 31.0913 and 28.7443 and 27.7174 | U2OS cell growth (500 nM, time 18 h): 26.4683 and 26.5812 and 25.756 | U2OS cell growth (500 nM, time 20 h): 31.6066 and 25.7677 and 28.3835 | U2OS cell growth (500 nM, time 22 h): 23.7757 and 25.1448 and 24.3237 | U2OS cell growth (500 nM, time 24 h): 23.9838 and 24.3114 and 24.0817 | U2OS cell growth (500 nM, time 26 h): 24.315 and 23.8237 and 23.1959 | U2OS cell growth (500 nM, time 28 h): 25.7796 and 27.7775 and 23.8045 | U2OS cell growth (500 nM, time 30 h): 23.1662 and 25.2785 and 25.0342 | U2OS cell growth (500 nM, time 32 h): 28.8463 and 30.8267 and 27.0245 | U2OS cell growth (500 nM, time 46 h): 38.2103 and 35.4684 and 34.5564 | U2OS cell growth (500 nM, time 48 h): 38.7923 and 42.0746 and 37.7481 | U2OS cell growth (500 nM, time 50 h): 35.7787 and 37.4828 and 37.4481 | U2OS cell growth (500 nM, time 52 h): 42.5443 and 47.4299 and 40.0477 | U2OS cell growth (500 nM, time 54 h): 35.6733 and 42.667 and 35.3607 | U2OS cell growth (500 nM, time 56 h): 43.0215 and 45.5232 and 43.9415 | U2OS cell growth (500 nM, time 58 h): 34.8748 and 46.6281 and 38.629 | U2OS cell growth (500 nM, time 60 h): 50.2082 and 51.0815 and 48.2963 | U2OS cell growth (500 nM, time 62 h): 48.2613 and 50.3061 and 44.4074 | U2OS cell growth (500 nM, time 64 h): 47.3827 and 47.4586 and 39.9365 | U2OS cell growth (500 nM, time 66 h): 43.074 and 44.7402 and 43.409 | U2OS cell growth (500 nM, time 68 h): 48.2467 and 46.3511 and 41.002 | U2OS cell growth (500 nM, time 70 h): 45.2225 and 49.1755 and 44.6094 | U2OS cell growth (500 nM, time 72 h): 40.2655 and 44.8363 and 51.0141 | U2OS cell growth (1 uM, time 0 h): 41.1183 and 35.5573 and 30.995 | U2OS cell growth (1 uM, time 2 h): 43.2651 and 37.7639 and 33.8573 | U2OS cell growth (1 uM, time 4 h): 39.0854 and 35.7076 and 33.0202 | U2OS cell growth (1 uM, time 6 h): 40.2992 and 37.2216 and 34.4466 | U2OS cell growth (1 uM, time 8 h): 37.3173 and 33.5515 and 32.4428 | U2OS cell growth (1 uM, time 10 h): 42.1549 and 38.9801 and 35.6018 | U2OS cell growth (1 uM, time 12 h): 39.3051 and 36.2596 and 32.5132 | U2OS cell growth (1 uM, time 14 h): 34.7349 and 33.4721 and 28.9114 | U2OS cell growth (1 uM, time 16 h): 36.5609 and 31.3223 and 29.4847 | U2OS cell growth (1 uM, time 18 h): 30.4572 and 28.8567 and 24.9221 | U2OS cell growth (1 uM, time 20 h): 27.7801 and 25.9127 and 22.6116 | U2OS cell growth (1 uM, time 22 h): 27.4605 and 26.4625 and 22.8788 | U2OS cell growth (1 uM, time 24 h): 25.2331 and 26.8925 and 22.6855 | U2OS cell growth (1 uM, time 26 h): 27.7636 and 30.4091 and 24.3243 | U2OS cell growth (1 uM, time 28 h): 28.5929 and 30.5423 and 24.5698 | U2OS cell growth (1 uM, time 30 h): 27.8104 and 30.6117 and 25.8499 | U2OS cell growth (1 uM, time 32 h): 32.6672 and 34.9619 and 29.1111 | U2OS cell growth (1 uM, time 46 h): 39.1313 and 35.6705 | U2OS cell growth (1 uM, time 48 h): 41.8136 and 49.2214 and 40.9152 | U2OS cell growth (1 uM, time 50 h): 41.5178 and 43.3812 and 36.8309
